In the supplement of paper PMC4604168 (melanoma cell lines):
The other results are listed elsewhere or left out. Single values are uncertain, as repeats are few or missing.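 Imaging used 1,536-well plates; nuclei positive for cleaved PARP by antibody were divided by total DNA-stained nuclei to yield the apoptosis fraction. Doses for screening kept most cells viable, and cell lines differ markedly in resting and induced cleaved-PARP levels.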

These molecules were tested on RPMI7951 (assay: cleaved PARP positive nuclei fraction relative to DMSO control; melanoma cells; higher = more apoptosis). Settings: library dose: low library concentration; 72 h.
In the case of Cn1c(Nc2ccc(C(F)(F)F)cc2)nc2cc(Oc3ccnc(-c4ncc(C(F)(F)F)[nH]4)c3)ccc21 + COc1ccc2c(c1)CCC1C2CCC2(C)C(NCCCCCCN3C(=O)C=CC3=O)CCC12 [U73122] (first compound 0.08 µM, partner dose 0.4 µM), the “cleaved PARP positive nuclei fraction” value is reported as 155%. For Cn1cncc1[C@@](N)(c1ccc(Cl)cc1)c1ccc2c(c1)c(-c1cccc(Cl)c1)cc(=O)n2C [tipifarnib] + Oc1cc(-c2nc(-c3ccccc3)[nH]c2-c2ccncc2)ccc1Cl [L779450] (first compound 0.01 µM, partner dose 0.2 µM), the “cleaved PARP positive nuclei fraction” value was 101%. For OCCn1cc(-c2cnc3nnn(Cc4ccc5ncccc5c4)c3n2)cn1 + O=C(O)C(=O)Nc1sc2c(c1C(=O)O)CCNC2 [TCS401] (first compound 1 µM, partner dose 1.66667 µM), the “cleaved PARP positive nuclei fraction” value was 90.1%. C=CCn1c(=O)c2cnc(Nc3ccc(N4CCN(C)CC4)cc3)nc2n1-c1cccc(C(C)(C)O)n1 + Oc1nc(-c2ccc(C(F)(F)F)cc2)nc2c1CSCC2 [XAV939] (first compound 0.02 µM, partner dose 2 µM) was tested, and the “cleaved PARP positive nuclei fraction” value was 178%. In the case of Nc1cccc2c1CN(C1CCC(=O)NC1=O)C2=O (centres undefined) [lenalidomide] + CCCCCCCCCCCC1=C(O)C(=O)C=C(O)C1=O [Embelin] (first compound 1 µM, partner dose 1.2 µM), the “cleaved PARP positive nuclei fraction” value is reported as 139%. For C[C@@H]1CCN(C(=O)CC#N)C[C@@H]1N(C)c1ncnc2[nH]ccc12 + Oc1cc(-c2nc(-c3ccccc3)[nH]c2-c2ccncc2)ccc1Cl [L779450] (first compound 1 µM, partner dose 0.2 µM), the “cleaved PARP positive nuclei fraction” value was 153%. Cc1cc(N2CCOCC2)cc2[nH]c(-c3c(NC[C@@H](O)c4cccc(Cl)c4)cc[nH]c3=O)nc12 + Cc1cc([N+](=O)[O-])ccc1NS(=O)(=O)c1cc(Cl)ccc1Cl [FH535] (first compound 0.2 µM, partner dose 1 µM) was tested, and the “cleaved PARP positive nuclei fraction” value was 81.5%. In the case of C=CCn1c(=O)c2cnc(Nc3ccc(N4CCN(C)CC4)cc3)nc2n1-c1cccc(C(C)(C)O)n1 + O=C1NC(=O)/C(=C/c2ccc(-c3ccc(F)cc3O)o2)S1 [AS252424] (first compound 0.02 µM, partner dose 1 µM), the “cleaved PARP positive nuclei fraction” value is reported as 124%. Cc1ccc(NC(=O)c2cccc(N(C)C)c2)cc1NC(=O)c1ccc(O)cc1 + N#Cc1c(O)c2c(-c3ccc(-c4ccccc4O)cc3)csc2[nH]c1=O [A769662] (first compound 2 µM, partner dose 2 µM) was tested, and the “cleaved PARP positive nuclei fraction” value was 287%. In the case of Cn1cncc1[C@@](N)(c1ccc(Cl)cc1)c1ccc2c(c1)c(-c1cccc(Cl)c1)cc(=O)n2C [tipifarnib] + CCN(CC)CCCCNc1ncc2cc(-c3cc(OC)cc(OC)c3)c(NC(=O)NC(C)(C)C)nc2n1 [PD173074] (first compound 0.01 µM, partner dose 0.1 µM), the “cleaved PARP positive nuclei fraction” value is reported as 43.3%. For O=C(CCCCCCC(=O)Nc1ccccc1)NO [vorinostat] + CCCCCCCCCCCC1=C(O)C(=O)C=C(O)C1=O [Embelin] (first compound 0.08 µM, partner dose 1.2 µM), the “cleaved PARP positive nuclei fraction” value was 94.3%. With Cn1nnc2c(C(N)=O)ncn2c1=O [temozolomide] + Cn1cc(/C=C2\C(=O)Nc3cccnc32)c2ccccc21 [GW441756] (first compound 2 µM, partner dose 0.4 µM) the “cleaved PARP positive nuclei fraction” value was 84.2%. In the case of Nc1cccc2c1CN(C1CCC(=O)NC1=O)C2=O (centres undefined) [lenalidomide] + COc1cc2ncnc(Nc3ccc(Oc4ccccc4)cc3)c2cc1OC [SrcI1] (first compound 1 µM, partner dose 2 µM), the “cleaved PARP positive nuclei fraction” value is reported as 190%. In the case of COc1cc(Nc2ncc(F)c(Nc3ccc4c(n3)NC(=O)C(C)(C)O4)n2)cc(OC)c1OC [Tamatinib] + CCc1ccc(CCOc2ccc(CC3SC(=O)NC3=O)cc2)nc1 [pioglitazone] (first compound 0.4 µM, partner dose 2 µM), the “cleaved PARP positive nuclei fraction” value is reported as 229%. In the case of Cc1nc(Nc2ncc(C(=O)Nc3c(C)cccc3Cl)s2)cc(N2CCN(CCO)CC2)n1 [dasatanib] + COc1cc(N2CCC(N3CCN(C)CC3)CC2)ccc1Nc1ncc(Cl)c(Nc2ccccc2S(=O)(=O)C(C)C)n1 [NVP-TAE684] (first compound 0.004 µM, partner dose 0.08 µM), the “cleaved PARP positive nuclei fraction” value is reported as 131%. For Cn1c(Nc2ccc(C(F)(F)F)cc2)nc2cc(Oc3ccnc(-c4ncc(C(F)(F)F)[nH]4)c3)ccc21 + Cc1cc([N+](=O)[O-])ccc1NS(=O)(=O)c1cc(Cl)ccc1Cl [FH535] (first compound 0.08 µM, partner dose 1 µM), the “cleaved PARP positive nuclei fraction” value was 207%. In the case of O=C(CCCCCCC(=O)Nc1ccccc1)NO [vorinostat] + O=S(=O)(c1ccccc1)N(CC(F)(F)F)c1ccc(C(O)(C(F)(F)F)C(F)(F)F)cc1 [T0901317] (first compound 0.08 µM, partner dose 1.4 µM), the “cleaved PARP positive nuclei fraction” value is reported as 37.4%. With CC(C)(C)c1cnc(CSc2cnc(NC(=O)C3CCNCC3)s2)o1 + CCc1ccc(CCOc2ccc(CC3SC(=O)NC3=O)cc2)nc1 [pioglitazone] (first compound 0.01 µM, partner dose 2 µM) the “cleaved PARP positive nuclei fraction” value was 46.2%. For COc1cc(Nc2ncc(F)c(Nc3ccc4c(n3)NC(=O)C(C)(C)O4)n2)cc(OC)c1OC [Tamatinib] + Cn1cc(/C=C2\C(=O)Nc3cccnc32)c2ccccc21 [GW441756] (first compound 0.4 µM, partner dose 0.4 µM), the “cleaved PARP positive nuclei fraction” value was 52.9%. C#Cc1cccc(Nc2ncnc3cc(OCCOC)c(OCCOC)cc23)c1 [erlotinib] + N#Cc1c(O)c2c(-c3ccc(-c4ccccc4O)cc3)csc2[nH]c1=O [A769662] (first compound 0.8 µM, partner dose 2 µM) was tested, and the “cleaved PARP positive nuclei fraction” value was 75.9%. With OCCn1cc(-c2cnc3nnn(Cc4ccc5ncccc5c4)c3n2)cn1 + COc1cc(N2CCC(N3CCN(C)CC3)CC2)ccc1Nc1ncc(Cl)c(Nc2ccccc2S(=O)(=O)C(C)C)n1 [NVP-TAE684] (first compound 1 µM, partner dose 0.08 µM) the “cleaved PARP positive nuclei fraction” value was 40.6%. In the case of O=C(Nc1cccc(Cl)c1)Nc1ncc(CCNc2ncnc3ccsc23)s1 + COc1ccc(COc2ccc(Cc3cnc(N)nc3N)cc2OC)cc1 [GW2580] (first compound 0.0008 µM, partner dose 1 µM), the “cleaved PARP positive nuclei fraction” value is reported as 279%. In the case of Cc1nc(Nc2ncc(C(=O)Nc3c(C)cccc3Cl)s2)cc(N2CCN(CCO)CC2)n1 [dasatanib] + O=C1NC(=O)/C(=C/c2ccc(-c3ccc(F)cc3O)o2)S1 [AS252424] (first compound 0.004 µM, partner dose 1 µM), the “cleaved PARP positive nuclei fraction” value is reported as 31.4%. With C[C@]1(c2nc3c(C(N)=O)cccc3[nH]2)CCCN1 [Veliparib] + Cc1cc([N+](=O)[O-])ccc1NS(=O)(=O)c1cc(Cl)ccc1Cl [FH535] (first compound 1.4 µM, partner dose 1 µM) the “cleaved PARP positive nuclei fraction” value was 42.7%. With C[C@@H]1CCN(C(=O)CC#N)C[C@@H]1N(C)c1ncnc2[nH]ccc12 + COc1cc2ncnc(Nc3ccc(Oc4ccccc4)cc3)c2cc1OC [SrcI1] (first compound 1 µM, partner dose 2 µM) the “cleaved PARP positive nuclei fraction” value was 168%. With CC1(C)NC(=O)N(c2ccc([N+](=O)[O-])c(C(F)(F)F)c2)C1=O [nilutamide] + c1cc(-c2cnn3cc(-c4ccc(OCCN5CCCCC5)cc4)cnc23)ccn1 [Dorsomorphin] (first compound 1 µM, partner dose 0.4 µM) the “cleaved PARP positive nuclei fraction” value was 42.1%. With C[C@@H]1CCN(C(=O)CC#N)C[C@@H]1N(C)c1ncnc2[nH]ccc12 + c1cc(-c2cnn3cc(-c4ccc(OCCN5CCCCC5)cc4)cnc23)ccn1 [Dorsomorphin] (first compound 1 µM, partner dose 0.4 µM) the “cleaved PARP positive nuclei fraction” value was 68.7%. In the case of NC(=O)Nc1cc(-c2cccc(F)c2)sc1C(=O)N[C@H]1CCCNC1 + O=S(=O)(c1ccccc1)N(CC(F)(F)F)c1ccc(C(O)(C(F)(F)F)C(F)(F)F)cc1 [T0901317] (first compound 0.02 µM, partner dose 1.4 µM), the “cleaved PARP positive nuclei fraction” value is reported as 37.7%. With O=C(Nc1cccc(Cl)c1)Nc1ncc(CCNc2ncnc3ccsc23)s1 + COc1cc(N2CCC(N3CCN(C)CC3)CC2)ccc1Nc1ncc(Cl)c(Nc2ccccc2S(=O)(=O)C(C)C)n1 [NVP-TAE684] (first compound 0.0008 µM, partner dose 0.08 µM) the “cleaved PARP positive nuclei fraction” value was 158%. With C[C@]1(c2nc3c(C(N)=O)cccc3[nH]2)CCCN1 [Veliparib] + O=S(=O)(c1ccccc1)N(CC(F)(F)F)c1ccc(C(O)(C(F)(F)F)C(F)(F)F)cc1 [T0901317] (first compound 1.4 µM, partner dose 1.4 µM) the “cleaved PARP positive nuclei fraction” value was 42.3%. For Cc1nc(Nc2ncc(C(=O)Nc3c(C)cccc3Cl)s2)cc(N2CCN(CCO)CC2)n1 [dasatanib] + CCc1ccc(CCOc2ccc(CC3SC(=O)NC3=O)cc2)nc1 [pioglitazone] (first compound 0.004 µM, partner dose 2 µM), the “cleaved PARP positive nuclei fraction” value was 119%. With CC1(C)NC(=O)N(c2ccc([N+](=O)[O-])c(C(F)(F)F)c2)C1=O [nilutamide] + O=c1cc(-c2cccc3c2Sc2ccccc2S3)oc(N2CCOCC2)c1 [KU55933] (first compound 1 µM, partner dose 1 µM) the “cleaved PARP positive nuclei fraction” value was 52.9%. For COc1cc(Nc2ncc(F)c(Nc3ccc4c(n3)NC(=O)C(C)(C)O4)n2)cc(OC)c1OC [Tamatinib] + Oc1nc(-c2ccc(C(F)(F)F)cc2)nc2c1CSCC2 [XAV939] (first compound 0.4 µM, partner dose 2 µM), the “cleaved PARP positive nuclei fraction” value was 106%. For O=C(CCCCCCC(=O)Nc1ccccc1)NO [vorinostat] + O=C(O)C(=O)Nc1sc2c(c1C(=O)O)CCNC2 [TCS401] (first compound 0.08 µM, partner dose 1.66667 µM), the “cleaved PARP positive nuclei fraction” value was 98.3%.
